# Screening data, single-dose tests

By UniProt entry, the sequences of proteins in these tests, tags left out.
UniProt P9WFT3, whole entry: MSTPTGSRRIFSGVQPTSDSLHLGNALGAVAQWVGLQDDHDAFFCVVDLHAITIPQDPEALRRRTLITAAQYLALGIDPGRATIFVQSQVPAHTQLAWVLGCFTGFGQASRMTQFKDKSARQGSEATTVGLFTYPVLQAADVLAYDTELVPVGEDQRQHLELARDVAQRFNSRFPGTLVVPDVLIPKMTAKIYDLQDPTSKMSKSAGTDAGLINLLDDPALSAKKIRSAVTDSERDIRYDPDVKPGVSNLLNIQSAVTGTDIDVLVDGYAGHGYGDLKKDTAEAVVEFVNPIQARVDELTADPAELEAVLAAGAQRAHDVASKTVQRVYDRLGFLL

Source: ChEMBL document CHEMBL3988442, “University of Dundee, Small-Polar-MMV Screening Library” (2021).

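Enzyme assay of tryptophanyl-tRNA synthetase; the read-out is not stated. Target: Tryptophan-tRNA ligase, Mycobacterium tuberculosis (UniProt P9WFT3). Tested at 10 µM. Direction is not recorded; retested compounds ran higher, which suggests that high means inhibition. Size under these conditions: about 65,000 compounds, about 64 of them at 50% or above in at least one test.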

Each number is a percent effect as filed. The record does not define 0% and 100%; most values in the screen are far below 50% and negative numbers occur (in some assays of this library far below -100). Compounds were drawn at random from those tested, without regard to their results.

- CN1CC2(CCCN(Cc3nnc(-c4ccccc4)o3)CC2)OC1=O (centres undefined) : -1.502%
- O=C(CSc1ccc2c(c1)OCCO2)NS(=O)(=O)c1ccccc1Br : 0.4617%
- O=C(O)C1(n2cccn2)CCN(c2nc(-c3ccccc3)no2)CC1 : 1.511%
- O[C@@H]1CN(Cc2ccc(F)c(F)c2)CC[C@H]1NCc1ccccn1 : -1.583%
- CC(NCCCn1cccn1)c1ccc(N2CCCS2(=O)=O)cc1 (centres undefined) : 0.3027%
- CN(C1CCN(c2ccccn2)CC1)S(=O)(=O)c1ccccc1F : 2.801%
- NC(=O)C(NC1CCN(CC2CCCCC2)CC1)c1ccccc1 (centres undefined) : -5.51%
- CC(C)CNC(=O)NC(=O)CNc1ccccc1SCC(C)C#N (centres undefined) : -1.639%
- CN(Cc1nnn(CC2CC2)n1)C(=O)c1ccccc1 : -1.732%
- CC1c2ccc(F)cc2CCN1C(=O)c1[nH]c(=O)[nH]c(=O)c1N (centres undefined) : 0.9032%
- Cc1noc(CNc2ccccc2CC(=O)N(C)C)n1 : 0.07764%
- CS(=O)(=O)NC1CCN(C(=O)NCCc2ccccn2)CC1 : 23.03%
- CN(C)C(=O)C1CN(Cc2cscn2)CCN(S(C)(=O)=O)C1 (centres undefined) : 1.087%
- CCC1CCCCN1S(=O)(=O)c1c(C)noc1C (centres undefined) : -3.526%
- CNS(=O)(=O)c1cccc(S(=O)(=O)Nc2ncc(C)s2)c1 : 3.128%
- Cc1cccc(C(=O)N2CCC(Cc3cnc4[nH]ccc4c3)CC2)n1 : 4.25%
- Cc1cc(C)n(CC2CCCN2C(=O)c2c[nH]c(=O)c(Cl)c2)n1 (centres undefined) : 2.982%
- c1cnc(N2CCCC3(CCN(CC4CCOC4)CC3)C2)nc1 (centres undefined) : 2.596%
- CC(C)N1C(=O)CC(N2CCN(c3ccc(F)cc3)CC2)C1=O (centres undefined) : -0.2712%
- CC(C)c1nnc(CN2CC(n3cccn3)Cc3ccccc32)o1 (centres undefined) : -1.877%
- CS(=O)(=O)NCc1cc2n(n1)CCCN(Cc1nc3ccccc3[nH]1)C2 : 0.5848%
- O=c1c(S(=O)(=O)N2CCCC2)cccn1Cc1ccccc1Cl : 0.08333%
- O=C(NCCc1ccc(F)cc1)C1CN(C(=O)Cn2cncn2)C1 : -2.576%
- CCn1cc(CN2CCC(c3ncc(Cl)cc3S(C)(=O)=O)CC2)c(C)n1 : 1.11%
- O=C1CCC2(CCCO2)CCN1Cc1noc(C2CCCC2)n1 (centres undefined) : -4.931%
- CSC(C)C(=O)N1CCCN(c2ncccc2C#N)CC1 (centres undefined) : 2.715%
- c1csc(CN2Cc3[nH]nc(COCC4CC4)c3C2)c1 : 0.4933%
- Cc1cccc(CN2CCN(C(=O)c3cnc(C)[nH]c3=O)CC2)c1 : 2.918%
- COc1cc(C#N)ccc1OCC(=O)NS(=O)(=O)c1cccnc1 : -0.1971%
- O=C1[C@H]2CN(Cc3ccc(F)cc3)C[C@H]2CN1c1ccsc1 : -1.451%
- Cc1cnc(N2CCn3cc(CNC(=O)CC4CC4)nc3C2)nc1 : 1.41%
- COc1cc(-n2ccnc2-c2ccc(C(=O)O)s2)ccc1NC(C)=O : 6.833%
- NC(CC1CCCCC1)c1ccccc1 (centres undefined) : 1.84%
- CCOc1ccc(S(=O)(=O)NCCCc2ccc(N(C)C)cc2)cc1F : 1.748%

Once more, the final 4:

{"compound": "Cc1cnc(N2CCn3cc(CNC(=O)CC4CC4)nc3C2)nc1", "percent effect": 1.41}
{"compound": "COc1cc(-n2ccnc2-c2ccc(C(=O)O)s2)ccc1NC(C)=O", "percent effect": 6.833}
{"compound": "NC(CC1CCCCC1)c1ccccc1", "stereo": "centres undefined", "percent effect": 1.84}
{"compound": "CCOc1ccc(S(=O)(=O)NCCCc2ccc(N(C)C)cc2)cc1F", "percent effect": 1.748}